Measured values from paper PMC4326459.

The chains behind the UniProt entries cited, without tags or fusion partners.
UniProt P12004: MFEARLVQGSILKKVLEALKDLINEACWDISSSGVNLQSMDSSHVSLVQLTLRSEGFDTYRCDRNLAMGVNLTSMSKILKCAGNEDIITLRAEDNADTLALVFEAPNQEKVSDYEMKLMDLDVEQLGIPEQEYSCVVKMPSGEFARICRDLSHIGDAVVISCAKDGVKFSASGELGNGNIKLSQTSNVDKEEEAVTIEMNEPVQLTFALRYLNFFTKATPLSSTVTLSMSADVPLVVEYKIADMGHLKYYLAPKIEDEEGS

Target: proliferating cell nuclear antigen (PCNA), cytosolic, endogenous in SH-SY5Y cells (human (endogenous in SH-SY5Y)) (UniProt P12004)
Assay: affinity purification with mass spectrometry; immunoprecipitation with anti-PCNA antibody from the cytosolic fraction of SH-SY5Y cells; immunoprecipitates identified by LC-MS/MS

binding: binds
B1: peroxiredoxin-6 (protein, UniProt P30041 1-224)
chain: MPGGLLLGDVAPNFEANTTVGRIRFHDFLGDSWGILFSHPRDFTPVCTTELGRAAKLAPEFAKRNVKLIALSIDSVEDHLAWSKDINAYNCEEPTEKLPFPIIDDRNRELAILLGMLDPAEKDEKGMPVTARVVFVFGPDKKLKLSILYPATTGRNFDEILRVVISLQLTAEKRVATPVDWKDGDSVMVLPTIPEEEAKKLFPKGVFTKELPSGKKYLRYTPQP

These are yes or no findings as the source states them, for the method shown. Binding seen in cells or lysates may run through a third protein. These calls come from enrichment with a bait or labelling near it, and not all partners need be listed.
